In this test the target is T1, mouse H-FABP (heart-type fatty acid-binding protein), recombinant with N-terminal histidine6-tag (mouse), P11404.
T1 chain: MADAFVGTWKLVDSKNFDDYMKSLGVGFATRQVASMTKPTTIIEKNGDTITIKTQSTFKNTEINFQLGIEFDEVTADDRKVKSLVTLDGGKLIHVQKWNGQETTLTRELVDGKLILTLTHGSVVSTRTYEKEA
Kind of test: NMR 15N relaxation (rotational correlation time from R2/R1, molecular weight estimate); 1.0 mM [15N]-labelled protein in 20 mM HEPES, 150 mM NaCl, pH 7.0; 298 K; Bruker 600 MHz; tau-c 10.82 ns, Mw by an empirical equation; both purified. Conditions: remark: other sources report otherwise.

These are yes or no findings as the source states them, for the method shown. Where a sequence is shown, tags or fusion partners need not be part of it.

B1: mouse H-FABP (heart-type fatty acid-binding protein), recombinant with N-terminal histidine6-tag, P11404 1-133 (protein)
chain: MADAFVGTWKLVDSKNFDDYMKSLGVGFATRQVASMTKPTTIIEKNGDTITIKTQSTFKNTEINFQLGIEFDEVTADDRKVKSLVTLDGGKLIHVQKWNGQETTLTRELVDGKLILTLTHGSVVSTRTYEKEA
Regarding B1, the binding result is “no binding (tested: 1.0 mM)”.
